# No constants are given. Whether binding was seen depends on the method and setting. Some entries that bind do so weakly or less than the wild type.
# Chains of the proteins cited; added tags and fusions are not shown.
# UniProt P51608: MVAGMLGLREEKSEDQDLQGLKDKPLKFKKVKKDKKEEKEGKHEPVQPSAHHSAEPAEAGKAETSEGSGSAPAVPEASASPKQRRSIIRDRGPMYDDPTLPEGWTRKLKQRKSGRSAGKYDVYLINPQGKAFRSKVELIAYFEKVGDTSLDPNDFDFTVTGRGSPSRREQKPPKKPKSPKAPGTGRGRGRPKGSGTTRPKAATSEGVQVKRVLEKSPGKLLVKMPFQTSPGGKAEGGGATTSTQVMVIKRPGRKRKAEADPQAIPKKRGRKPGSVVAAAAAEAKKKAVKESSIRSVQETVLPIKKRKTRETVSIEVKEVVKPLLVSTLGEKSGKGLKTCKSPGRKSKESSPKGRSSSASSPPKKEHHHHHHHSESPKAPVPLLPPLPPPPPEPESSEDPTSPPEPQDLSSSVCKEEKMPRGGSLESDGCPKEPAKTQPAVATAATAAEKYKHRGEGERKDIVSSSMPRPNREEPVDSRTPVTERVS
# Target: recombinant full-length human MeCP2 with a Flag-tag (human) (UniProt P51608)
# Test: ELISA; competition ELISA: Flag-tagged MeCP2 coated (25 µL of 10 µg/mL); 2.5 µM L1-ICD preincubated for 1 h without or with a 5-fold molar excess of L1 peptides; detection with L1 antibody C-2; both purified
row,binding,Binder
1,binds,KDETFGEYRSLESDNEEK [synthetic L1 peptide Pc]
2,binds,CFIKRSKGGKYSVKDKEDTQVDSEARPMKDETFGE [synthetic L1 peptide P1]
3,binds,EDTQVDSEARPMKDET [synthetic L1 peptide Pb]
4,binds,RPMKDETFGEYRSLESDNEEKAFGSSQPSLNGDIK [synthetic L1 peptide P2]

# Source: PMC8998178
